Assay results: publication PMC4466674
These are yes or no findings as the source states them, for the method shown. Binding seen in cells or lysates may run through a third protein. Some binding calls cover weakened binding; strength is not graded here. Tags and fused reporters may be left off the sequences shown.

Sequences of proteins named here, by UniProt entry; tags and fusion partners are left off.
UniProt P06730: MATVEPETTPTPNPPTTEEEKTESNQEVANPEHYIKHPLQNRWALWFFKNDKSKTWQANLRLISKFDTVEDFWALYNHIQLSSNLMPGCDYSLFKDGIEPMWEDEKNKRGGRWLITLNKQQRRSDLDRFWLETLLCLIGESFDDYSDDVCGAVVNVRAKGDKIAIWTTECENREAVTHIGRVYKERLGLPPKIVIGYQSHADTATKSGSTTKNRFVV

Target: eukaryotic initiation factor 4E (eIF4E) (human (endogenous in Rh30)) (UniProt P06730)
Assay: pull-down; 7-methyl GTP Sepharose 4B pull-down of eIF4E from lysates of serum-starved Rh30 cells infected with Ad-4EBP1-5A or Ad-GFP, with or without rapamycin (100 ng/ml, 2 h) and IGF-1 (10 ng/ml, 1 h); bound proteins detected by Western blot

binding: binds
B1: HA-tagged constitutively hypophosphorylated 4E-BP1 (4EBP1-5A) (protein, UniProt Q62622 1-117)
chain: MSAGSSCSQTPSRAIPTRRVALGDGVQLPPGDYSTAPGGTLFSTAPGGTRIIYDRKFLMECRNAPVAKAPPKDLPTIPGVTAPTSDEPPMQASQSHLHSSPEDKRAGGEESQFEMDI
